The supplement of paper PMC12889115
This is one part of the list. Values are raw readings; no control value is given beside them.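 First-pass screen: polymyxin B was added at a level that permeabilizes the Salmonella outer membrane while sparing the inner membrane. DMSO wells, with and without polymyxin B, defined maximum growth. Because plates differed from one another, each plate's data were ranked separately and the compounds with the lowest OD600 were carried forward as hits.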

Tested on: Salmonella enterica serovar Typhimurium SL1344
Assay: bacterial growth OD600 after 18 h with compound and polymyxin B; higher = more bacterial growth (less inhibition)
Conditions: 50 µM, Mueller-Hinton broth

| Compound | bacterial growth OD600 (polymyxin B 1 µg/mL) | bacterial growth OD600 (polymyxin B 0.75 µg/mL) |
| --- | --- | --- |
| Cc1cccc(CN2CCCC3(CCN(C(=O)c4ccc(C)nc4)C3)C2=O)c1 (stereo not given) | 0.954 | – |
| CCn1ncc(CN2C[C@H]3OC(=O)N(Cc4ccccn4)[C@H]3C2)c1C | – | 0.812 |
| COc1ccc(C(=O)NC2CC2)c(OC2CCN(Cc3cnn(C)c3)CC2)c1 | 0.877 | – |
| COc1cc(CN2CCN(Cc3ccc(C)cc3)CC2CCO)cc(OC)c1 (stereo not given) | 0.857 | – |
| CN1CCCc2cc(CN3CCC4(CC3)CC4C(=O)NCc3ccco3)ccc21 (stereo not given) | – | 1.03 |
| O=C(CC(c1ccccc1)c1ccccc1Cl)N1CCOCC1 (stereo not given) | 0.698 | – |
| COCCN(Cc1cccnc1)C(Cc1ccccc1)C1CCN(Cc2ccc(F)c(OC)c2)CC1 (stereo not given) | – | 0.806 |
| CCCn1c(C)c(CC(=O)NCC2COCCO2)c2c1CC(C)(C)CC2=O (stereo not given) | 0.829 | – |
| C#Cc1cccc(C(=O)NCC2CC(Cc3ccc(F)cc3)=NO2)c1 (stereo not given) | – | 0.951 |
| CCC(C)CC(=O)N1CCc2c(C(=O)NCc3ccc4c(c3)OCO4)c(OC)cc(=O)n2CC1 (stereo not given) | – | 0.849 |
| COC(=O)CN(C)C(=O)C1CCC(=O)N(Cc2cccc(C(F)(F)F)c2)C1 (stereo not given) | 1.07 | – |
| CCOC(c1ccccc1)c1ccc2c(c1)CN(Cc1ccc(C#CC(C)(C)O)cc1)CCO2 (stereo not given) | – | 0.053 |
| CC(=O)c1cccc(OCc2cc(C(=O)N(C)Cc3ccncn3)no2)c1 | 1.09 | – |
| Cc1ncc2c(c1CNC(=O)/C=C/c1cccs1)CCN(C(=O)CCc1ccc3c(c1)OCO3)C2 | – | 0.784 |
| COc1ccc(CCN2CCC(CN(C)Cc3nc(C(C)C)cs3)CC2)cc1 | 1.13 | – |
| COc1ccc(-c2n[nH]cc2CNC(C)c2ccccc2Cl)cc1F (stereo not given) | 0.792 | – |
| O=C(NCC1CCC2(CCN(C(=O)c3ccc4c(c3)OCCO4)CC2)O1)C1CCCCC1 (stereo not given) | – | 0.919 |
| CCOC(=O)C1(Cc2cccc(F)c2)CCN(CCCn2cccn2)CC1 | 0.78 | – |
| COc1ccc(CN2C[C@@H]3C[C@@H](c4ccc(OC)cc4)N4CCC[C@@]34C2=O)cc1 | – | 0.819 |
| COc1ccc(CC2=NOC(CNC(=O)COc3ccc(C)cc3)C2)cc1 (stereo not given) | – | 0.81 |
| COCc1ccc(C(=O)NCc2c(C)ncc3c2CCN(C(=O)/C=C/c2ccc(Cl)cc2)C3)o1 | – | 0.752 |
| COCCN1C(=O)CC(CC(=O)N2CCN(c3cccc(C)n3)CC2)(c2ccccc2Cl)C1=O (stereo not given) | – | 0.855 |
| Cc1ccc(OCC(=O)N2CCC(C(Cc3ccccc3)N(C)C(=O)c3ccoc3C)CC2)cc1 (stereo not given) | – | 0.002 |
| Cc1oc(-c2ccccc2NS(C)(=O)=O)nc1CN(C)Cc1cc(CN2CCCCC2)cs1 | – | 0.734 |
| O=C1O[C@@H]2CN(C3CCCC3)C[C@@H]2N1CCc1cccc(Cl)c1 | 0.821 | – |
| COCC(=O)N(C)C(Cc1ccc(F)cc1)C1CCN(C(=O)c2ccc(-c3ccccc3)cc2)CC1 (stereo not given) | – | 0.71 |
| COCCN1C(=O)CC(CC(=O)N2CCCC(C(=O)Cc3ccccc3)C2)(c2ccccc2C)C1=O (stereo not given) | – | 0.45 |
| O=C(Nc1ccccc1)NC1CC(=O)N(Cc2cccc(F)c2)C1 (stereo not given) | 0.883 | – |
| C/C=C(\C)C(=O)NCC1Cc2cc(C)cc(-c3cc(C(C)=O)ccc3F)c2O1 (stereo not given) | – | 0.529 |
| CC(C)(C)C(=O)N1CCC(C2CCN(Cc3cccc(F)c3F)CC2)C1 (stereo not given) | – | 0.821 |

Taken from above:
Under bacterial growth OD600 (polymyxin B 1 µg/mL), COc1ccc(-c2n[nH]cc2CNC(C)c2ccccc2Cl)cc1F (stereo not given) reads 0.792
Under bacterial growth OD600 (polymyxin B 0.75 µg/mL), CCC(C)CC(=O)N1CCc2c(C(=O)NCc3ccc4c(c3)OCO4)c(OC)cc(=O)n2CC1 (stereo not given) reads 0.849
